Measured values: PMC11494503 (ACS Chemical Biology, 2024)
For part of these data: HELM strings list residues between dots; [ac] is acetyl, [am] amide, other brackets name non-standard units.

How the values were obtained:
[1] = general procedure: Fmoc solid-phase peptide synthesis; 2-Chlorotrityl chloride (2-CTC) resin, first amino acid loaded in-house; HATU/DIPEA (cyclisation); conditions: for final HPLC purity: 220 nm; for isolated mass / isolated yield: scale 0.1 mmol
[2] = general procedure: Fmoc solid-phase peptide synthesis; 2-Chlorotrityl chloride resin; HATU/DIPEA (cyclisation); conditions: whole synthesis, scale 0.1 mmol
[3] = whole synthesis, scale of the general procedure 0.1 mmol

Substance | final HPLC purity [1, 3] | isolated mass ([1]; whole synthesis) [mg] | isolated yield ([1]; whole synthesis) [%] | further results
cyclo-CFLLNL | 99.9% Purity | 5 | 7 | 
cyclo-C(TAT)RTYIL |  |  |  | final HPLC purity ([1]; conjugation step): 88% Purity; conjugation yield ([1]; conjugation step, on cyclo-CRTYIL): 71%
cyclo-C(TAT)RYLIL |  |  |  | final HPLC purity ([1]; conjugation step): 99% Purity; conjugation yield ([1]; conjugation step, on cyclo-CRYLIL): 74%
cyclo-C(TAT)RILIL |  |  |  | final HPLC purity ([1]; conjugation step): 95.8% Purity; conjugation yield ([1]; conjugation step, on cyclo-CRILIL): 64%
PEPTIDE1{C.R.L.L.I.L}$PEPTIDE1,PEPTIDE1,6:R2-1:R1$$$V2.0 | 93.9% purity | 21 | 31 | 
cyclo-CRTYIL | 98.9% Purity |  | 16 | isolated mass [2]: 12 mg
cyclo-C(TAT)RMFIL |  |  |  | final HPLC purity ([1]; conjugation step): 97.5% Purity; conjugation yield ([1]; conjugation step, on cyclo-CRMFIL): 58%
cyclo-C(TAT)RRIIL |  |  |  | final HPLC purity ([1]; conjugation step): 89.8% Purity; conjugation yield ([1]; conjugation step, on cyclo-CRRIIL): 62%
PEPTIDE1{C.R.V.L.V.L}$PEPTIDE1,PEPTIDE1,6:R2-1:R1$$$V2.0 | 95.8% purity | 20 | 29 | 
cyclo-CRIFIM | 94% Purity | 17 | 22 | 
cyclo-CSVWLY | 81% Purity | 10 | 13 | 
PEPTIDE1{C.R.Y.L.I.L}$PEPTIDE1,PEPTIDE1,6:R2-1:R1$$$V2.0 | 98% Purity | 31 | 41 | 
cyclo-CKVFLL | 94% Purity | 21 | 30 | 
PEPTIDE1{C.R.R.I.I.L}$PEPTIDE1,PEPTIDE1,6:R2-1:R1$$$V2.0 | 100% purity | 8 | 11 | 
PEPTIDE1{C.R.L.I.I.V}$PEPTIDE1,PEPTIDE1,6:R2-1:R1$$$V2.0 | 94.3% purity | 23 | 33 | 
PEPTIDE1{C.V.M.R.I.A}$PEPTIDE1,PEPTIDE1,6:R2-1:R1$$$V2.0 | 99.5% purity | 8 | 12 | 
C(Spy)GRKKRRQRRRPPQ |  |  |  | step yield ([1]; late stage modification step): 45%
cyclo-CRILIL | 100% Purity | 15 | 21 | 
cyclo-C(TAT)LLFVY |  |  |  | final HPLC purity ([1]; conjugation step): 94.7% Purity; conjugation yield ([1]; conjugation step, on cyclo-CLLFVY): 35%
PEPTIDE1{C.R.M.Y.V.L}$PEPTIDE1,PEPTIDE1,6:R2-1:R1$$$V2.0 | 96% Purity | 15 | 20 | 
PEPTIDE1{C.R.M.F.I.L}$PEPTIDE1,PEPTIDE1,6:R2-1:R1$$$V2.0 | 93% purity | 6.7 | 9 | 
PEPTIDE1{C.R.Y.Y.V.L}$PEPTIDE1,PEPTIDE1,6:R2-1:R1$$$V2.0 | 77.2% Purity | 4 | 5 | 
cyclo-C(TAT)RLLIL |  |  |  | final HPLC purity ([1]; conjugation step): 100% Purity; conjugation yield ([1]; conjugation step, on cyclo-CRLLIL): 71%
PEPTIDE1{C.L.L.F.C.L}$PEPTIDE1,PEPTIDE1,1:R1-6:R2$$$V2.0 | 97% Purity | 31 | 45 | 
cyclo-CRVYIL | 84.3% purity | 10 | 13 | 
cyclo-CRLYIV | 81.7% purity | 7 | 9 | 
cyclo-CRTIVL | 72.2% purity | 3 | 4 | 
cyclo-CRLYVL | 97.5% Purity | 20 | 27 | 
